Measurements published in US5770176.
Construct, isoform or probe ends are uncertain for at least one entry. At least one result comes from cells or an extract, where the contact may be indirect.

The chains behind the UniProt entries cited, without tags or fusion partners.
UniProt P49884, whole entry: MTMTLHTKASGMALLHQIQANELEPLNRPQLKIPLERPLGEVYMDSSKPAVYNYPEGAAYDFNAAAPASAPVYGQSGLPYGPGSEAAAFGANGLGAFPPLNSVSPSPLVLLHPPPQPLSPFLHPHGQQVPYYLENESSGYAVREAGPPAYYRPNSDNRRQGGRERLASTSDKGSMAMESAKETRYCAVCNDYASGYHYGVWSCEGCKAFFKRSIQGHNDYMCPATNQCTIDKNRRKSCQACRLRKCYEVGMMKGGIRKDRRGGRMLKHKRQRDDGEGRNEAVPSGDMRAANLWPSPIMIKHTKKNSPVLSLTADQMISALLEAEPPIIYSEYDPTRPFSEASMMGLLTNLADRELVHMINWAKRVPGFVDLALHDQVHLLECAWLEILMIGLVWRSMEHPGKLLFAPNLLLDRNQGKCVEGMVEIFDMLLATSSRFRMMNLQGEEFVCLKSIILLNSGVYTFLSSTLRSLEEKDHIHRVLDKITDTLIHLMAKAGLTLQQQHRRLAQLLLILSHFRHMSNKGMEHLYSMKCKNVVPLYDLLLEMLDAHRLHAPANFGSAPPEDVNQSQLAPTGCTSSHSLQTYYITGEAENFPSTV
UniProt P03372, whole entry: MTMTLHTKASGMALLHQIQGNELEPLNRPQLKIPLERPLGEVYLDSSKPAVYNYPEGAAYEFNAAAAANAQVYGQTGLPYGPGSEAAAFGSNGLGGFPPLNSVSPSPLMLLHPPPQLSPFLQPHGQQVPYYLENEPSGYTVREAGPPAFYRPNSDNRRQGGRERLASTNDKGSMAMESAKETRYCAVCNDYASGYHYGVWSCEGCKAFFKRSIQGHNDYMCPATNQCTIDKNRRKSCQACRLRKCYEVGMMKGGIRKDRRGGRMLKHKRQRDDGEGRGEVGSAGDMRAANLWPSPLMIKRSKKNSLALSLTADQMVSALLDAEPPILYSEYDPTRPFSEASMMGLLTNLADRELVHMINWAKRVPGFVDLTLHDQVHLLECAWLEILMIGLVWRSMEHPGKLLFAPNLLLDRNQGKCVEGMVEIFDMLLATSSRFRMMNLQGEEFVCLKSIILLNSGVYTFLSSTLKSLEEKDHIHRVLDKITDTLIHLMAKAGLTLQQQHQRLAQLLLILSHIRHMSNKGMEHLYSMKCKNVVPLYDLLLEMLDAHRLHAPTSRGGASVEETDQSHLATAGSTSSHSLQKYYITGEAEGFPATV

Assays:
Experiment in all cases: ELONA
[1] = biological target: Estrogen receptor (ER) (Bos taurus) (UniProt P49884); details: two calf uteri samples; MAb capture, estradiol, 37 C; protein in an extract; protein details: calf uteri (Animal Technologies) cytosol; label: biotin (random or 5'-phosphate end)
[2] = biological target: Estrogen receptor (ER) (Homo sapiens) (UniProt P03372); details: 23 breast cancer cytosols; all Abbott ER-positive samples above 0.5 absorbance cut-off; MAb capture, estradiol, 37 C; protein in an extract; protein details: breast cancer cytosols; label: biotin (random or 5'-phosphate end)
[3] = test system: Estrogen receptor (ER), ER-positive control; details: sandwich with ER MAb-coated wells; estradiol; 50 mM Tris pH 7.4, 1% BSA, 1 mM EDTA, 0.1 M KCl, 10% glycerol; 37 C; ER-negative controls negative; protein in an extract; protein details: ER-positive controls from DSL and Du Pont; label: biotin (random or 5'-phosphate end)

Measured: binding result

CCAGGTCAGAGTGACCTGAGCTAAAATAACACATTCAGCCAGGTCAGAGTGACCTGAGCTAAAATAACACATTCAGCCAGGTCAGAGTGACCTGAGCTAAAATAACACATTCAGCCAGGTCAGAGTGACCTGAGCTAAAATAACACATTCAGCCAGGTCAGAGTGACCTGAGCTAAAATAACACATTCAGCCAGGTCAGAGTGACCTGAGCTAAAATAACACATTCAGCCAGGTCAGAGTGACCTGAGCTAAAATAACACATTCAGCCAGGTCAGAGTGACCTGAGCTAAAATAACACATTCAG (double strand) [ERE octamer (8 tandem copies of 38 bp consensus ERE)]
binds: all assays above
